These are yes or no findings as the source states them, for the method shown. Some entries that bind do so weakly or less than the wild type. Sequences can lack the tags named with a protein.
Target: p55 (yeast two-hybrid fusion) (Drosophila) (UniProt Q24572)
Experiment: two-hybrid; Matchmaker Two-Hybrid system 3, strain AH109; growth on high-stringency plates (SD/-Ade/-His/-Leu/-Trp), confirmed by X-Gal staining of filter-lifted colonies

Sequences of proteins named here, by UniProt entry; tags and fusion partners are left off.
UniProt Q24572: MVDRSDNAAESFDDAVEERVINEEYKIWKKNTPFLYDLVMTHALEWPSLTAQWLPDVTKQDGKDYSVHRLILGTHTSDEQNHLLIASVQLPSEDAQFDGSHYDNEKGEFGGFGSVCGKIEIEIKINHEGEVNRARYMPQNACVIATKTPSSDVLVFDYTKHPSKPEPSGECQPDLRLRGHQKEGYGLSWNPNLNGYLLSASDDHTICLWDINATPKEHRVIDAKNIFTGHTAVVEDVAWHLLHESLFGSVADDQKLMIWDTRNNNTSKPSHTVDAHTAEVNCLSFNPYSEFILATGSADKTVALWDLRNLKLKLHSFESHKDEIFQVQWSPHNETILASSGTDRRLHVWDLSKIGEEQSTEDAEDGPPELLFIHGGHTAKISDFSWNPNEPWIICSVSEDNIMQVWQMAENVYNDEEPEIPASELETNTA

binding: binds
B1: MTA-like (yeast two-hybrid fusion) (protein, UniProt Q9VNF6 1-880)
chain: MATNMYRVGDYVYVETTPNSPYLIRRIEELNKNQTGNVEAKVMCFYRRRDLPNPLVQLADKHQLATAEDSPLATKLKKTWLRTPVSEEQAAQAVLDPSIAALDEERTSPTQTSGGGGSATGNSGSNSSGTSNNNSSSTAIGGGAGGSGGAGGDAEKGEALTSKQRYQIKHRELFLSRQVESIPATQIRGKCSVTLLNETESLQSYLNKDDTFFYCLVFDPNQKTLLADKGEIRVGSRYQCDIPAKLKDTATDDRKLEELESLVWTPEHSLTDRKIDQFLVVSRSIGTFARALDCSSSVKQPSLHMSAAAASRDITLFHAMNILHKHEYSIEESMSSLVPSTGPVLCRDEIEDWSASEANLFEEALEKYGKDFNDIRQDFLPWKTLKQIIEYYYMWKTTDRYVQQKRVKAVEAELKLKQVYIPQYNNNGKGNGTSTKAGGGIYNGTTNGSTDLSSNGKPCESCGTTKSSQWNSVSSGHSTSRLCLSCWEYWRRYGSMKSATKGDAGEGDAKKKSSSAASTPTATLAGLATTPTAVVDLNDDEKISDLTNRQLHRCSIVNCGKEFKLKTHLARHYAQAHGIAISSGSPRPIMKTRTAFYLHTNPMTRVARAICRSIVKPKKAARQSAYAINAMLVKQEFTNRISGKSQAEIKKLLLLKPKDRGSVTKIANRLGAPGSGPHEWLVLTPKDKMPLPAVVSFPKPPKAPDGSLVYDRVPNKSPDVVAVPADKELTIIPTQATSTIRKRAHEDQQLNGTEVTIVPSGPPAKRPNKDPMPSHCPSPEQFAAMMAASGQPLSRHHLNGKQKIAQMARGGNGRKQVISWMDAPDDVYFRANDTHKKTRKILSAVDLRRAARKPWRTLPIKPAAPEPSSRPIESQIVILD

Source: paper PMC529442
